# PubChem BioAssay AID743454 | Peter MacCallum Cancer Centre – 2014
# Assay: 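Search for knock-downs that restore vorinostat killing in resistant colon cancer cells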 (primary screen)
# Cell system: human HCT116-VR colon cancer cells, selected for vorinostat resistance
# Knock-down reagent: siRNA pool against human genes, 40 nM siRNA pool
# Duration: vorinostat for 24 h, read-out about 72 h after transfection
# Challenge: vorinostat at 2.5 µM final
# Detection: 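Two measures, CellTiter-Fluor viability and luminescent caspase 3/7 activity, each as fold change against same-plate mock wells, mean of duplicates, then screen-wide robust z-score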
# Reading the numbers: viability robust z-score: higher = more viable cells than screen typical; caspase robust z-score: higher = more caspase 3/7 activity than screen typical
# Call rule: 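a knock-down is a hit when classed RV1 or RV2 for lowered viability, or CA1 or CA2 for caspase activation; those lethal without drug were dropped; hits were retested singly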
# The whole screen tested about 18,000 reagents; below is a part drawn at random. In the full data, 450 (2.5%) were called active. 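Single biological run; no consistent viability z cut-off exists, so the class columns, not z-scores, define the calls.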 No sequences are given here.
gene knocked down,viability hit class,caspase hit class,viability robust z-score,caspase robust z-score,outcome
ELOVL3,no change,no change,1.02,0.54,inactive
TUBGCP4,no change,no change,-0.64,1.4,inactive
AMER3,no change,no change,0.08,-1.02,inactive
MANBA,no change,no change,1.94,-0.72,inactive
PRKCD,no change,no change,-0.11,-1.2,inactive
CLNK,no change,no change,-0.14,-1.29,inactive
IZUMO2,no change,no change,0.1,1.44,inactive
CPA1,no change,no change,-0.11,-0.92,inactive
KLHL30,no change,no change,0.25,1.66,inactive
CCDC54,no change,no change,-0.48,-0.7,inactive
SSTR4,no change,no change,-1.36,-0.4,inactive
UBAP2L,no change,no change,-1.19,3.79,inactive
TRIM42,no change,no change,0.9,0.99,inactive
PCDHGA2,no change,no change,-0.05,2.67,inactive
SLC34A1,no change,no change,0.86,-0.26,inactive
PIEZO1,no change,no change,-0.2,1.31,inactive
SLCO1A2,no change,no change,-0.78,-0.64,inactive
RHOBTB3,no change,no change,0.42,-0.06,inactive
RPL36,no change,no change,-3.46,-0.82,inactive
UBE2Q1,no change,CA1 (caspase activation),-0.64,6.09,active
TMEM92,no change,no change,1.89,0.94,inactive
N4BP2,no change,no change,0.6,-0.12,inactive
ADD2,no change,no change,0.39,0.35,inactive
PDCL2,no change,no change,-0.17,-1.07,inactive
ZNF696,no change,no change,-1,0.75,inactive
SACK1H,no change,no change,-1.06,2.24,inactive
YLPM1,no change,no change,0.99,-0.73,inactive
SERPINA1,no change,no change,-0.57,-0.3,inactive
TMEM151A,no change,no change,-0.48,-1.22,inactive

Next part, starting with the last 6 of the part before.
gene knocked down,viability hit class,caspase hit class,viability robust z-score,caspase robust z-score,outcome
PDCL2,no change,no change,-0.17,-1.07,inactive
ZNF696,no change,no change,-1,0.75,inactive
SACK1H,no change,no change,-1.06,2.24,inactive
YLPM1,no change,no change,0.99,-0.73,inactive
SERPINA1,no change,no change,-0.57,-0.3,inactive
TMEM151A,no change,no change,-0.48,-1.22,inactive
CCM2,no change,no change,0.53,2.27,inactive
BMP6,no change,no change,0.76,-0.4,inactive
PPP2R3A,no change,no change,-0.01,0.28,inactive
OR51F2,no change,no change,-1.38,0.1,inactive
TUBB,no change,no change,-0.3,1.22,inactive
RHOV,no change,no change,0.74,-0.74,inactive
LRRC2,no change,no change,-0.24,-0.37,inactive
AICDA,no change,no change,0.96,1.4,inactive
PLXDC1,no change,no change,-1.27,0.02,inactive
ADCY5,no change,no change,-0.52,1.34,inactive
DCLRE1B,no change,no change,-0.03,-0.65,inactive
RNF217,no change,no change,0.76,-0.26,inactive
CRACDL,no change,no change,-0.34,-0.46,inactive
OR52N4,no change,no change,-0.56,1.99,inactive
SPANXN4,no change,no change,-0.92,1.77,inactive
CRAT,no change,no change,0.63,1.7,inactive
ULK3,no change,no change,0.9,-0.16,inactive
BUD23,no change,no change,-1.36,-0.17,inactive
PCDHGA11,no change,no change,-0.32,0.21,inactive
SSBP3,no change,no change,-0.92,-1.21,inactive
UPP1,no change,no change,-0.11,-0.56,inactive
IPO13,no change,no change,-1.33,0.74,inactive
ASPN,no change,no change,0.84,-0.34,inactive
F8A1,no change,no change,0.08,-0.23,inactive
KIRREL2,no change,no change,-1.07,-0.32,inactive
C2CD4A,no change,no change,0.59,-0.37,inactive
KBTBD7,no change,no change,0.02,2.62,inactive
RSPO1,no change,no change,-0.89,1.21,inactive
CAMK1D,no change,no change,0.25,1.5,inactive
WDR62,no change,no change,-0.35,0.44,inactive
ADGRD2,no change,no change,0.92,-1.3,inactive
MPDU1,no change,no change,0.58,0.69,inactive
DRC1,no change,no change,0.44,-0.12,inactive
PSMC3,no change,no change,-4.66,1.14,inactive
CLK3,no change,no change,-0.22,1.74,inactive
OTUD5,no change,no change,-1.04,1.86,inactive
BROX,no change,no change,-0.73,1.05,inactive
TAPBPL,no change,no change,-2,-0.58,inactive
BTNL9,no change,no change,-1.04,-0.94,inactive
COQ4,no change,no change,1.68,0.68,inactive
ATP5MG,no change,no change,-0.8,-0.68,inactive
RNF115,no change,no change,1.01,-0.18,inactive
FMR1NB,no change,no change,-1.5,-1.04,inactive
G2E3,no change,no change,0.06,-0.76,inactive
